The text below walks through data of US20170022275A1 (Dana-Farber, published 2017).

No constants are given. Whether binding was seen depends on the method and setting. Some binding calls cover weakened binding; strength is not graded here. For some of these results: Where a sequence is shown, tags or fusion partners need not be part of it.

In assay [1] the target is T1, MICA on the surface of cells (human) (UniProt Q29983).
T1 sequence (looked up): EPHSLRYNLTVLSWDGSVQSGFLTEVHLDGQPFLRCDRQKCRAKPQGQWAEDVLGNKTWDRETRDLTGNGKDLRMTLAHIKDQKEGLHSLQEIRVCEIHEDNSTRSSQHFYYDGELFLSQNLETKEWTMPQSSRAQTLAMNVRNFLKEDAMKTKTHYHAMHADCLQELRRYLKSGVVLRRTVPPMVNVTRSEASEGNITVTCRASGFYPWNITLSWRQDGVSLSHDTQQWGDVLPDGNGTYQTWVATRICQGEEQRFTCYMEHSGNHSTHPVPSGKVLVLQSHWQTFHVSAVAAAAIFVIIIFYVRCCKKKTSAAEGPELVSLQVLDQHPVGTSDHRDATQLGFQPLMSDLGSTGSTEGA
The experiment in a line: flow cytometry on RPMI 8226, Xg-1, OVCAR3, U937, K028, 1792, 827, MCF7 cells, directly conjugated antibody 10 µg/ml. On the technique in general: Flow cytometry measures light scatter and fluorescence of single cells or particles in a stream.

The target in a further assay is T2, MICB (human) (UniProt Q29980).
T2 sequence (looked up): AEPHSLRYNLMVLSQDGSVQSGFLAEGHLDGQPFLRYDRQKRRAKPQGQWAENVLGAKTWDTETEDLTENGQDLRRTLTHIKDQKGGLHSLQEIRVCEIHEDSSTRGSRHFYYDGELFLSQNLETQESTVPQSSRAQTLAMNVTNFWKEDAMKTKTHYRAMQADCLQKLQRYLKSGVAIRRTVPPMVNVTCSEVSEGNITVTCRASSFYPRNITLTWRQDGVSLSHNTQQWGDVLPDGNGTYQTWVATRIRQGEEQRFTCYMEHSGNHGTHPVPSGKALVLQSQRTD
The assay is described as follows: cytometric bead assay, biotinylated antigen on streptavidin beads, FITC anti-human IgG.

The target of assay [2] is T1, MICA on the surface of cells (human). The assay is described as follows: flow cytometry, autologous CD33+ CD34+ tumor cells from bone marrow, antibody 10 µg/ml.
The target is the same in assay [3]. The assay is described as follows: flow cytometry (figure legend).
Assay [4] has the same target. The experiment in a line: flow cytometry, antibody 10 ug/ml, B16 and B16-MICA cells (figure legend).
Assay [5] concerns the target T3, MICA antigen (UniGene Hs.130838) with C-terminal BirA tag (human) (UniProt Q29983).
T3 sequence: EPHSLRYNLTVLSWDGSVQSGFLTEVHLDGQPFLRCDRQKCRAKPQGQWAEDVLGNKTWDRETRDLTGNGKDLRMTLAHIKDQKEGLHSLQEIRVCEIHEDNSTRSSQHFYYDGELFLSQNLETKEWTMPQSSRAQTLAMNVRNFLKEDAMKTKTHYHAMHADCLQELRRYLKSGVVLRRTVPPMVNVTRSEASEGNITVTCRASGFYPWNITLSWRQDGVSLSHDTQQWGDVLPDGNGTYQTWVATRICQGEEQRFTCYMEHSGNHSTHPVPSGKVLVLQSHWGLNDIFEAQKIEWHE
The assay is described as follows: bead assays: Luminex MICA beads and MICA-coated streptavidin beads, flow cytometry.

B1: CM24002 Ab2 (antibody, V domains shown)
VH: QVQLQESGPGLVEPSGTLSLTCTVSGGSISRSNWWSWVRQPPGEGLEWIGEIHHIGRSSYNPSLKSRVTMSVDKSQNQFSLRLTSVTAADTAVYYCAKNGYYAMDVWGQGTTVTVSS
VL: EIVLTQSPGTLSLSPGERATLSCRASQSVSSDFLAWYQQKPGQAPRLLIYATSFRATGISDRFSGSGSGTDFSLTINRLEPEDFAVYYCQHYRSSPPWYTFAQGTKLDMRRTVAAPSV
Regarding B1, the binding entry (in assay [1]; with MICB (human); in assay [2]; in assay [3]) was “binds” throughout.

B2: CM33322 Ab11 (antibody, V domains shown)
VH: QVQLQESGPGLVKPSENLSLTCTVSDASMSDYHWSWIRQAAGKGLEWIGRMYSTGSPYYKPSLKGRVTMSIDTSKNQFSLKLASVTAADTAIYYCASGQHIGGWVPPDFWGQGTLVTVSS
VL: DIVMTQTPLSSPVTLGQPASISCRSSEGLVYSDGDTYLSWFHQRPGQPPRLLIYKISNRFSGVPDRFSGSGAGTDFTLKISRVEAEDVGVYYCMQATHFPWTFGQGTKVEVKR
Regarding B2, the binding result in the assay with MICB (human) is reported as “binds”.

B3: CM33322 Ab29 (antibody, V domains shown)
VH: EVQLLESGGGLVQPGGSLRLSCAASGFTFSSYGLTWIRQAPGKGLEWVSSISGSGNNTYYADSVKGRFTISRDKVKKTLYLQMDSLTVGDTAVYYCLGVGQGHGIPVIVSS
VL: DVVMTQSPLSLPVTLGQPASISCRSSQSLVHSDGNTYLNWFHQRPGQSPRRLIYKVSKRDSGVPDRFSGSGSGSDFTLKISRVEAEDVGIYYCMQGTHWPTFGQGTKVEIKRTVAA
Regarding B3, the binding entry in assay [1], in assay [4] and in assay [3] was “binds” in each case.

B4: CM24002 Ab4 (antibody, V domains shown)
VH: QVQLQESGPGLVKPSGTLSLTCAVSGASITNGAWWSWVRQPPGKGLEWIGEIYLNGNTNSNPSLKSRVIISVDKSKNHFSLTLNSVTAADTAVYYCAKNAAYNLEFWGQGALVTVSS
VL: EIVLTQSPGTLSLSPGERATLSCRASQTVSSPYVAWYQQKRGQAPRLLIYGASTRATGIPDRFSGSGSGTDFTLTISRLEPEDFAVYYCQQYDRSYYYTFGQGTKLEIK
On to B4, for which the binding result with MICB (human) is reported as “binds”.

B5: MICA-Ab20 (antibody, V domains shown)
VH: QVQLQQWGAGLLKPSETLALTCAVSGGSFTDHYWSWIRQAPGKGLEWIGEINHSGVTNYNPSLKSRLTISVDTSKSQFSLRLTSVTAADTALYYCAKTGLYYDDVWGTFRPRGGFDSWGQGTLVTVSS
VL: DIVMTQSPDSLAVSLGERATINCKSSQSILYSSDNKNYLAWYQHKPGQPPKLLFYWASIRESGVPDRFSGGGSGTDFTLTISSLQAEDVAVYYCQQYYSPPCSFGQGTKLEIQ
Turning to B5, the binding entry in assay [5] is “binds”.
